In patent publication US12099068B2, “Biomarkers for graft-versus-host disease” (Incyte Corporation, priority 2018, dated 2024):

Tests used:
plasma proteins [1] = assay: OLINK proximity extension assay of baseline plasma, CR compared to PD/Death, updated classification, Example 5 (Table 11); format: in vivo, human; conditions: itacitinib 200 or 300 mg QD plus corticosteroids, response at day 28
plasma proteins [2] = assay: Proteins of Table 11 stably expressed in complete responders between days 1 and 28, Example 5 (Table 12); format: in vivo, human; conditions: day 1 vs day 28
Protocol: Due to the limited sample size, steroid-naive (N=10) and steroid-refractory (N=18) patients were combined for further analysis. Broad proteomic analysis of over 1000 proteins was conducted by OLINK Proteomics (Watertown, MA) using a proximity extension assay as described by the manufacturer. Data are presented as normalized protein expression (NPX) in log 2 scale. Statistical differences were evaluated using unpaired and paired t tests, one-way […] (ANOVA), and Pearson Correlation. Significance was conferred when P<0.05.

B1: ENPP7 (protein, UniProt Q6UWV6 22-458, looked up)
Ectonucleotide …: APVQSQGSQNKLLLVSFDGFRWNYDQDVDTPNLDAMARDGVKARYMTPAFVTMTSPCHFTLVTGKYIENHGVVHNMYYNTTSKVKLPYHATLGIQRWWDNGSVPIWITAQRQGLRAGSFFYPGGNVTYQGVAVTRSRKEGIAHNYKNETEWRANIDTVMAWFTEEDLDLVTLYFGEPDSTGHRYGPESPERREMVRQVDRTVGYLRESIARNHLTDRLNLIITSDHGMTTVDKRAGDLVEFHKFPNFTFRDIEFELLDYGPNGMLLPKEGRLEKVYDALKDAHPKLHVYKKEAFPEAFHYANNPRVTPLLMYSDLGYVIHGRINVQFNNGEHGFDNKDMDMKTIFRAVGPSFRAGLEVEPFESVHVYELMCRLLGIVPEANDGHLATLLPMLHTESALPPDGRPTLLPKGRSALPPSSRPLLVMGLLGTVILLSEVA
With B1 the “Fold Change, Down-Regulated in CR Compared to PD/Death” value (from here on “Fold Change, Down-Regulated”) (plasma proteins [1]) was −3.804 and the “Fold Change (D1 vs D28), proteins Down-Regulated in CR Compared to PD/Death” value (plasma proteins [2]) was 1.4178.

B2: MFGE8 (protein, UniProt Q08431 24-387, looked up)
Lactadherin: LDICSKNPCHNGGLCEEISQEVRGDVFPSYTCTCLKGYAGNHCETKCVEPLGLENGNIANSQIAASSVRVTFLGLQHWVPELARLNRAGMVNAWTPSSNDDNPWIQVNLLRRMWVTGVVTQGASRLASHEYLKAFKVAYSLNGHEFDFIHDVNKKHKEFVGNWNKNAVHVNLFETPVEAQYVRLYPTSCHTACTLRFELLGCELNGCANPLGLKNNSIPDKQITASSSYKTWGLHLFSWNPSYARLDKQGNFNAWVAGSYGNDQWLQVDLGSSKEVTGIITQGARNFGSVQFVASYKVAYSNDSANWTEYQDPRTGSSKIFPGNWDNHSHKKNLFETPILARYVRILPVAWHNRIALRLELLGC
For B2, the “Fold Change, Down-Regulated” value (plasma proteins [1]) was −3.4384 and the “Fold Change (D1 vs D28), proteins Down-Regulated in CR Compared to PD/Death” value (plasma proteins [2]) was 1.1591.

B3: VAMP5 (protein, UniProt O95183 1-116, looked up)
Vesicle-associated membrane …: MAGIELERCQQQANEVTEIMRNNFGKVLERGVKLAELQQRSDQLLDMSSTFNKTTQNLAQKKCWENIRYRICVGLVVVGVLLIILIVLLVVFLPQSSDSSSAPRTQDAGIASGPGN
B3 was tested, and the “Fold Change, Down-Regulated” value (plasma proteins [1]) was −4.3186 and the “Fold Change (D1 vs D28), proteins Down-Regulated in CR Compared to PD/Death” value (plasma proteins [2]) was −1.3344.

B4: KRT19 (protein, UniProt P08727 1-400, looked up)
Keratin, type I cytoskeletal …: MTSYSYRQSSATSSFGGLGGGSVRFGPGVAFRAPSIHGGSGGRGVSVSSARFVSSSSSGAYGGGYGGVLTASDGLLAGNEKLTMQNLNDRLASYLDKVRALEAANGELEVKIRDWYQKQGPGPSRDYSHYYTTIQDLRDKILGATIENSRIVLQIDNARLAADDFRTKFETEQALRMSVEADINGLRRVLDELTLARTDLEMQIEGLKEELAYLKKNHEEEISTLRGQVGGQVSVEVDSAPGTDLAKILSDMRSQYEVMAEQNRKDAEAWFTSRTEELNREVAGHTEQLQMSRSEVTDLRRTLQGLEIELQSQLSMKAALEDTLAETEARFGAQLAHIQALISGIEAQLGDVRADSERQNQEYQRLMDIKSRLEQEIATYRSLLEGQEDHYNNLSASKVL
In the case of B4, the “Fold Change, Down-Regulated” value (plasma proteins [1]) is reported as −3.2722 and the “Fold Change (D1 vs D28), proteins Down-Regulated in CR Compared to PD/Death” value (plasma proteins [2]) is reported as −1.0142.

B5: ALDH1A1 (protein, UniProt P00352 2-501, looked up)
Aldehyde dehydrogenase 1A1: SSSGTPDLPVLLTDLKIQYTKIFINNEWHDSVSGKKFPVFNPATEEELCQVEEGDKEDVDKAVKAARQAFQIGSPWRTMDASERGRLLYKLADLIERDRLLLATMESMNGGKLYSNAYLNDLAGCIKTLRYCAGWADKIQGRTIPIDGNFFTYTRHEPIGVCGQIIPWNFPLVMLIWKIGPALSCGNTVVVKPAEQTPLTALHVASLIKEAGFPPGVVNIVPGYGPTAGAAISSHMDIDKVAFTGSTEVGKLIKEAAGKSNLKRVTLELGGKSPCIVLADADLDNAVEFAHHGVFYHQGQCCIAASRIFVEESIYDEFVRRSVERAKKYILGNPLTPGVTQGPQIDKEQYDKILDLIESGKKEGAKLECGGGPWGNKGYFVQPTVFSNVTDEMRIAKEEIFGPVQQIMKFKSLDDVIKRANNTFYGLSAGVFTKDIDKAITISSALQAGTVWVNCYGVVSAQCPFGGFKMSGNGRELGEYGFHEYTEVKTVTVKISQKNS
For B5, the “Fold Change, Down-Regulated” value (plasma proteins [1]) was −3.168 and the “Fold Change (D1 vs D28), proteins Down-Regulated in CR Compared to PD/Death” value (plasma proteins [2]) was −1.0791.

B6: PRSS2 (protein, UniProt P07478 24-247, looked up)
Trypsin-2: IVGGYICEENSVPYQVSLNSGYHFCGGSLISEQWVVSAGHCYKSRIQVRLGEHNIEVLEGNEQFINAAKIIRHPKYNSRTLDNDILLIKLSSPAVINSRVSAISLPTAPPAAGTESLISGWGNTLSSGADYPDELQCLDAPVLSQAECEASYPGKITNNMFCVGFLEGGKDSCQGDSGGPVVSNGELQGIVSWGYGCAQKNRPGVYTKVYNYVDWIKDTIAANS
In the case of B6, the “Fold Change, Down-Regulated” value (plasma proteins [1]) is reported as −3.6787 and the “Fold Change (D1 vs D28), proteins Down-Regulated in CR Compared to PD/Death” value (plasma proteins [2]) is reported as −1.1946.

B7: CR2 (protein, UniProt P20023 21-1033, looked up)
Complement receptor type 2: ISCGSPPPILNGRISYYSTPIAVGTVIRYSCSGTFRLIGEKSLLCITKDKVDGTWDKPAPKCEYFNKYSSCPEPIVPGGYKIRGSTPYRHGDSVTFACKTNFSMNGNKSVWCQANNMWGPTRLPTCVSVFPLECPALPMIHNGHHTSENVGSIAPGLSVTYSCESGYLLVGEKIINCLSSGKWSAVPPTCEEARCKSLGRFPNGKVKEPPILRVGVTANFFCDEGYRLQGPPSSRCVIAGQGVAWTKMPVCEEIFCPSPPPILNGRHIGNSLANVSYGSIVTYTCDPDPEEGVNFILIGESTLRCTVDSQKTGTWSGPAPRCELSTSAVQCPHPQILRGRMVSGQKDRYTYNDTVIFACMFGFTLKGSKQIRCNAQGTWEPSAPVCEKECQAPPNILNGQKEDRHMVRFDPGTSIKYSCNPGYVLVGEESIQCTSEGVWTPPVPQCKVAACEATGRQLLTKPQHQFVRPDVNSSCGEGYKLSGSVYQECQGTIPWFMEIRLCKEITCPPPPVIYNGAHTGSSLEDFPYGTTVTYTCNPGPERGVEFSLIGESTIRCTSNDQERGTWSGPAPLCKLSLLAVQCSHVHIANGYKISGKEAPYFYNDTVTFKCYSGFTLKGSSQIRCKADNTWDPEIPVCEKETCQHVRQSLQELPAGSRVELVNTSCQDGYQLTGHAYQMCQDAENGIWFKKIPLCKVIHCHPPPVIVNGKHTGMMAENFLYGNEVSYECDQGFYLLGEKKLQCRSDSKGHGSWSGPSPQCLRSPPVTRCPNPEVKHGYKLNKTHSAYSHNDIVYVDCNPGFIMNGSRVIRCHTDNTWVPGVPTCIKKAFIGCPPPPKTPNGNHTGGNIARFSPGMSILYSCDQGYLLVGEALLLCTHEGTWSQPAPHCKEVNCSSPADMDGIQKGLEPRKMYQYGAVVTLECEDGYMLEGSPQSQCQSDHQWNPPLAVCRSRSLAPVLCGIAAGLILLTFLIVITLYVISKHRARNYYTDTSQKEAFHLEAREVYSVDPYNPAS
B7 was tested, and the “Fold Change, Up-Regulated in CR Compared to PD/Death” value (plasma proteins [1]) was 2.1595 and the “Fold Change (D1 vs D28), proteins Up-Regulated in CR Compared to PD/Death” value (plasma proteins [2]) was −1.1488.

B8: CRISP2 (protein, UniProt P16562 22-243, looked up)
Cysteine-rich secretory …: KDPAFTALLTTQLQVQREIVNKHNELRKAVSPPASNMLKMEWSREVTTNAQRWANKCTLQHSDPEDRKTSTRCGENLYMSSDPTSWSSAIQSWYDEILDFVYGVGPKSPNAVVGHYTQLVWYSTYQVGCGIAYCPNQDSLKYYYVCQYCPAGNNMNRKNTPYQQGTPCAGCPDDCDKGLCTNSCQYQDLLSNCDSLKNTAGCEHELLKEKCKATCLCENKIY
For B8, the “Fold Change, Up-Regulated in CR Compared to PD/Death” value (plasma proteins [1]) was 2.2475 and the “Fold Change (D1 vs D28), proteins Up-Regulated in CR Compared to PD/Death” value (plasma proteins [2]) was 1.0244.
